In article PMC6842489:
Results are given in words; binding and its absence hold for the method and conditions named. Binding seen in cells or lysates may run through a third protein. Some results given as binding are weak or reduced against the parent protein; the word gives no strength.

Chains of the proteins cited; added tags and fusions are not shown.
UniProt Q9Y572: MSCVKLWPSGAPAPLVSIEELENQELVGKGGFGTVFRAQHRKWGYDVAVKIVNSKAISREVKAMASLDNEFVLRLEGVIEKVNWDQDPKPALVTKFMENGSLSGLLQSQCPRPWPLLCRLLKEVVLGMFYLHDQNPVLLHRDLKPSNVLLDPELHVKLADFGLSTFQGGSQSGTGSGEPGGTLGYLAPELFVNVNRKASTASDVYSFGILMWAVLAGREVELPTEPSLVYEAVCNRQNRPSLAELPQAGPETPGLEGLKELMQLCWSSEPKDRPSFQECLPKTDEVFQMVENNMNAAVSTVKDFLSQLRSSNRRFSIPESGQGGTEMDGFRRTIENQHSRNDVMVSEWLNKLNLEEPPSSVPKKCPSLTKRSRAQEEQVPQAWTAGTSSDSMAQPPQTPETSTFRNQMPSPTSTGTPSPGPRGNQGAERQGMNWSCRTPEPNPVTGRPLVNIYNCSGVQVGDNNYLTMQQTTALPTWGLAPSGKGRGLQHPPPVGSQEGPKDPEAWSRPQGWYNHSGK
UniProt Q13546: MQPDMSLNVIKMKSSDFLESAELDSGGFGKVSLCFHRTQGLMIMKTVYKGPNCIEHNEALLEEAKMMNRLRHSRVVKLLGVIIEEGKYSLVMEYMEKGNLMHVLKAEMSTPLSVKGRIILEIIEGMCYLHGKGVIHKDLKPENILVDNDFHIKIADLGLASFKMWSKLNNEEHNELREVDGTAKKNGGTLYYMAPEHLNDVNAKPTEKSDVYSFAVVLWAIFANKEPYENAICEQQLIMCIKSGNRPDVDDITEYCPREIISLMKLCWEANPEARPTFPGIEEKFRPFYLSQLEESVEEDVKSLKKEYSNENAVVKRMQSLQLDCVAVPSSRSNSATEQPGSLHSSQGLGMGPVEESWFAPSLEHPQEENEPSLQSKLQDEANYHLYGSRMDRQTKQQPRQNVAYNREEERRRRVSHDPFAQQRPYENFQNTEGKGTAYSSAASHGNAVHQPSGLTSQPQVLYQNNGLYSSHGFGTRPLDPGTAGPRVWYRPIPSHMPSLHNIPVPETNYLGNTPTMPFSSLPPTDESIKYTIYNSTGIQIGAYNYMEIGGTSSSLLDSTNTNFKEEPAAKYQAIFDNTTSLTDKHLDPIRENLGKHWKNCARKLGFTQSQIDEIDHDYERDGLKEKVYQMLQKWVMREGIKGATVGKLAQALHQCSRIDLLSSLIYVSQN

Tests used:
[1] = target: receptor interacting protein 3 (human (endogenous in HT29)) (UniProt Q9Y572); experiment: co-IP; as a1, but HT29 cells pre-treated with Nec-1 (50 μM) for 12 h before 10 Gy X-ray
[2] = target: receptor interacting protein 3 (human (endogenous in HT29)) (UniProt Q9Y572); experiment: co-IP; lysate of HT29 cells exposed to 10 Gy X-ray; anti-RIP1 or anti-RIP3 antibodies with protein A/G agarose beads overnight at 4 °C; beads washed at least five times with lysis buffer; western blot

In the case of “receptor interacting protein 1 (from UniProt Q13546 1-671)”, the binding [1] was “no binding (condition: cells pre-treated with 50 μM Nec-1)” and the binding [2] was “binds”.
